Test results: patent publication US20140088023A1
No constants are given. Whether binding was seen depends on the method and setting. For some of these results: Binding seen in cells or lysates may run through a third protein. Some entries that bind do so weakly or less than the wild type.

T1: soluble guanylyl cyclase alpha 1 (sGCα1) (UniProt Q02108)
T1 sequence (looked up): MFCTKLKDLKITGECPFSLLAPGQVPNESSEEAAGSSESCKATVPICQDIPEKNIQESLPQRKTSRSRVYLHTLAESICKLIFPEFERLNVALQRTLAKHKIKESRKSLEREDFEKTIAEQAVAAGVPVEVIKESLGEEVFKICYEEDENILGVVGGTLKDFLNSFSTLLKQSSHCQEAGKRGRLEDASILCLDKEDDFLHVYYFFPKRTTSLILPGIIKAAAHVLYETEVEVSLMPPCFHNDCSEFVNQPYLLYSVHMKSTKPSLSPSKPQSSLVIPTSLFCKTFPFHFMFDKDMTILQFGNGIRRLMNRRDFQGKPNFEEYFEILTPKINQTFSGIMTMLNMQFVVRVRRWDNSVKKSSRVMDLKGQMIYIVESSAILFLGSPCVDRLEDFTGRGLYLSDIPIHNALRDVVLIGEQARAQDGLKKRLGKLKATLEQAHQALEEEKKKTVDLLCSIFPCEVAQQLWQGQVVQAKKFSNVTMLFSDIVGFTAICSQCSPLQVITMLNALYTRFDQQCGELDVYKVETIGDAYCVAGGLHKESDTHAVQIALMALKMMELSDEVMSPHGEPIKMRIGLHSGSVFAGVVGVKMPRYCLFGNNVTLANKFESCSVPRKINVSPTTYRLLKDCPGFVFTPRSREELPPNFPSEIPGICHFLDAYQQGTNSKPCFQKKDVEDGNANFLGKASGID


Columns and labels:
[1] = target: T1, soluble guanylyl cyclase alpha 1 (sGCα1); assay: immunocytochemistry and streptavidin-agarose pull-down with Peptide A-8R-Biotin, LNCaP cells or extract (figure legend)
[2] = target: T1, soluble guanylyl cyclase alpha 1 (sGCα1); assay: heading of the section on the experiments done with Peptide A-8R-Biotin
[3] = target: T1, soluble guanylyl cyclase alpha 1 (sGCα1); assay: streptavidin-agarose pull-down from LNCaP whole cell extract; co-localization by immunocytochemistry is reported in the same paragraph
[4] = target: T1, soluble guanylyl cyclase alpha 1 (sGCα1); assay: competitive binding assay (format and labelled competitor not described at this place)

Row | Binder | binding [1] | binding [2] | binding [3] | binding [4]
1 | TFCKAFPFHIIRRRRRRRR (Biotin tag at the C-terminus) [Peptide A-8R-Biotin] | binds | binds | binds | –
2 | TFCKAFRRRRRRRR (carboxy-terminus capped with an amide moiety (as in Table 2)) [Peptide TF6-8R] | – | – | – | binds
